Some of the results follow. Residues, ends and D or L forms follow the SMILES beside them. *: point of attachment. Cbz = O=C(OCc1ccccc1)*
compound: CC(C)C[C@@H](C=O)NC(=O)[C@H](CC(C)C)NC(=O)[C@H](CC(C)C)NC(=O)OCc1ccccc1; assay: log2 fold change, soluble protein after heating vs DMSO (PISA); higher = thermal stabilisation; K562 cells, 10 uM, 30 min; active = over 0.2 and 3.5 SD of the protein, either way, in both replicates (recomputed)
Summary of the method: (§1)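 K562 cells at 2×10^6 cells/mL were given 10 μM compound for 30 min. Aliquots then went through 3 min of heating across 48°C-58°C, were pooled, and were extracted in PBS with 0.5% NP-40 at 4°C, and the supernatant after 21,000xg for 90 min was quantified by TMTpro 16plex LC-MS/MS with channel sums equalised. Thermal stability relative to control samples, from duplicates, is given as log2 fold change.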

Amino acid sequences for entries named in this document (tags omitted). A change or cut given only in a name is not applied to a line headed by its entry.
UniProt Q13509, whole entry, looked up: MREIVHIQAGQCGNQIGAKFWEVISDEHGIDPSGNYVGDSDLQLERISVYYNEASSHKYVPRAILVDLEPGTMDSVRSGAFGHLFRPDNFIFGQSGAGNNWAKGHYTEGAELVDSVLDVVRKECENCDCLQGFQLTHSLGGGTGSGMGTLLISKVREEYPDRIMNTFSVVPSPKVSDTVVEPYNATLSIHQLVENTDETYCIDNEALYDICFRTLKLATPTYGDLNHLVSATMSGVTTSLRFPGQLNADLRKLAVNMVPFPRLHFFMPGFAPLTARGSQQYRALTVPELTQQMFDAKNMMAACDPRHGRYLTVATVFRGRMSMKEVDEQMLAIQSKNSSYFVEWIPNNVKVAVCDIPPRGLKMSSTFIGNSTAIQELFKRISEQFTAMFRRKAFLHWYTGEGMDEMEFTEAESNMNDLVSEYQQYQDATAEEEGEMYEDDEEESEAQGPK
UniProt Q9NUQ3: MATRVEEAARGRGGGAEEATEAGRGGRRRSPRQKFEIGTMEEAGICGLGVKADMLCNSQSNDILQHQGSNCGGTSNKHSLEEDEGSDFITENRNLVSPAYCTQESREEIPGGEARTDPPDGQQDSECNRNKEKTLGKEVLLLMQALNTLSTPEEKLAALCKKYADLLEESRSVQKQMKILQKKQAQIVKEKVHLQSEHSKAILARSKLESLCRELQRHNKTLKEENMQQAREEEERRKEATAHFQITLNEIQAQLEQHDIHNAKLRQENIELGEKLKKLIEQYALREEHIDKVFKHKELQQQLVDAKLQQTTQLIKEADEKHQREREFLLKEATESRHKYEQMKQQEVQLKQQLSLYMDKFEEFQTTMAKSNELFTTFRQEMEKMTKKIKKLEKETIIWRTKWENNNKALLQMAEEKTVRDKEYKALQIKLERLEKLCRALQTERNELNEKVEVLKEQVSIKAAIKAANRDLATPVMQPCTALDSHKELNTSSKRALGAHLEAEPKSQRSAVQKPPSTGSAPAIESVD
UniProt P26368, whole entry, looked up: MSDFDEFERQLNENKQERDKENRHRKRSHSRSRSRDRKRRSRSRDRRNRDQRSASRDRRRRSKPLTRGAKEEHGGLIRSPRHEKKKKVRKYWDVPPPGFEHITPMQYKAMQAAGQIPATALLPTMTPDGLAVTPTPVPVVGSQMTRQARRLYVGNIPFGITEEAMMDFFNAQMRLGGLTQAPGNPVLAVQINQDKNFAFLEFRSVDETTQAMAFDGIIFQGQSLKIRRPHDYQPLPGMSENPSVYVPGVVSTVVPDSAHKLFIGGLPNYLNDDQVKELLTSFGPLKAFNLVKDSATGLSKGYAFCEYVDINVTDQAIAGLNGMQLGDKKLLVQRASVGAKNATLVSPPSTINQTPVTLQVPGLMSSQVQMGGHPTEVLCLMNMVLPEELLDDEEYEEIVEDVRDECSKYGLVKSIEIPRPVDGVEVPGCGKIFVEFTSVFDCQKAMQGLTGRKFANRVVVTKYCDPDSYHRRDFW
UniProt Q969E8: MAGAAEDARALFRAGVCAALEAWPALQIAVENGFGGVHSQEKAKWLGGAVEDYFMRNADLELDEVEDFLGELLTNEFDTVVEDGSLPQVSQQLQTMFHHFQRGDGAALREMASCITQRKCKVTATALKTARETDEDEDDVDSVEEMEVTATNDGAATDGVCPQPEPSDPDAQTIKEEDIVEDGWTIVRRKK
UniProt P62256: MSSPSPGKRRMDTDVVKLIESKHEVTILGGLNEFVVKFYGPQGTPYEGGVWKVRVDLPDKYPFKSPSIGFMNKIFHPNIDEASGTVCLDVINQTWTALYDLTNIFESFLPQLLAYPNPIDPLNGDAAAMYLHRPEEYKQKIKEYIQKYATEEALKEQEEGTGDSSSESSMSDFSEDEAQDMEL
UniProt P63279, whole entry, looked up: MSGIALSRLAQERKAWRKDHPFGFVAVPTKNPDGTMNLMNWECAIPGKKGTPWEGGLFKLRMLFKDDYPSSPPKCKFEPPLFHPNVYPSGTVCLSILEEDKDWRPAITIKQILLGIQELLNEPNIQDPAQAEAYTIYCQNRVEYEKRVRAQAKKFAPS
UniProt Q14157: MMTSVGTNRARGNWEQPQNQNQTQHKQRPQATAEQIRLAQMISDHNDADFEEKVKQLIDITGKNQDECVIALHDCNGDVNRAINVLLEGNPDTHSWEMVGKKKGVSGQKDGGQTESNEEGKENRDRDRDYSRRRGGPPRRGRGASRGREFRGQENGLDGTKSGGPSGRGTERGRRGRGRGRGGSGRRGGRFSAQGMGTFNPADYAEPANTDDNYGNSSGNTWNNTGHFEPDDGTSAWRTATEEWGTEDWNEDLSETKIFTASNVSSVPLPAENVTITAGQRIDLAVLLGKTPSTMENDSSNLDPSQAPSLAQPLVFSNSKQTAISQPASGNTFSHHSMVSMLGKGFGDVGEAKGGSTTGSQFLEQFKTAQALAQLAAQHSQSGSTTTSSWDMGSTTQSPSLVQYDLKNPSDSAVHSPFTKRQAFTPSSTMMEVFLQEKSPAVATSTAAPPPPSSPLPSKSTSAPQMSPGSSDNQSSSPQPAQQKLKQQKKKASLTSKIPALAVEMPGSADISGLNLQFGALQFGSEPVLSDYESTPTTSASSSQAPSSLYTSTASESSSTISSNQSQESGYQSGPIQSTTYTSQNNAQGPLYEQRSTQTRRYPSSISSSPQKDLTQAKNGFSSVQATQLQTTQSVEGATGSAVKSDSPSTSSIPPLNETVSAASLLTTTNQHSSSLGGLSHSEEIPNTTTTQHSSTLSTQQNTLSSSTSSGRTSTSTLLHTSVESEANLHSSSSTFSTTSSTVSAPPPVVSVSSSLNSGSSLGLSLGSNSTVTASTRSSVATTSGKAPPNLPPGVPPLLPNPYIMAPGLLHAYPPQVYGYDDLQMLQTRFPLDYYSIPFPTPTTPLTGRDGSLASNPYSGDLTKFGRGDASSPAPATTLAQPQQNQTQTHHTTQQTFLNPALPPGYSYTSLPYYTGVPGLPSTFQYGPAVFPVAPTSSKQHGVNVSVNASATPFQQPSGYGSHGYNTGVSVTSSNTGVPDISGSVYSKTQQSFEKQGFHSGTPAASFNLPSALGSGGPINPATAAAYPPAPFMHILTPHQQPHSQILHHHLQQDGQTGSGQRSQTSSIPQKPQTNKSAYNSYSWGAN
UniProt Q9BTX7: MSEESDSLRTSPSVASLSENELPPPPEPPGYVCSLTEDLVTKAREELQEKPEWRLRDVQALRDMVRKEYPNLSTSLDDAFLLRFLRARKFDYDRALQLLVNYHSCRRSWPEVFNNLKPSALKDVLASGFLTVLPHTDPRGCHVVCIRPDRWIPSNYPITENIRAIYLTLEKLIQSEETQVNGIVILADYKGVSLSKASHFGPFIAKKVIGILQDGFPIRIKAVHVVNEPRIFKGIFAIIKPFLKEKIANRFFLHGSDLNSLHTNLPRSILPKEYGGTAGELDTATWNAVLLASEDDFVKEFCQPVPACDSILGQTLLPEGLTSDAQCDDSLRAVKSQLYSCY
UniProt O43396: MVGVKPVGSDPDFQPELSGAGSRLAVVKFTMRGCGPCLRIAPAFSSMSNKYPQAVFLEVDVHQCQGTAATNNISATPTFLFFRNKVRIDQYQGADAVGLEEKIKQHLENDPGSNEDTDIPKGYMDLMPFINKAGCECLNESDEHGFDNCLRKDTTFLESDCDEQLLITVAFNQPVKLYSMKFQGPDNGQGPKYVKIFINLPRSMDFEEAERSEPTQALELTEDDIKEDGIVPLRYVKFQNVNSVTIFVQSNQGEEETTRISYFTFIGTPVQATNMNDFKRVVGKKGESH
UniProt Q6NXR4: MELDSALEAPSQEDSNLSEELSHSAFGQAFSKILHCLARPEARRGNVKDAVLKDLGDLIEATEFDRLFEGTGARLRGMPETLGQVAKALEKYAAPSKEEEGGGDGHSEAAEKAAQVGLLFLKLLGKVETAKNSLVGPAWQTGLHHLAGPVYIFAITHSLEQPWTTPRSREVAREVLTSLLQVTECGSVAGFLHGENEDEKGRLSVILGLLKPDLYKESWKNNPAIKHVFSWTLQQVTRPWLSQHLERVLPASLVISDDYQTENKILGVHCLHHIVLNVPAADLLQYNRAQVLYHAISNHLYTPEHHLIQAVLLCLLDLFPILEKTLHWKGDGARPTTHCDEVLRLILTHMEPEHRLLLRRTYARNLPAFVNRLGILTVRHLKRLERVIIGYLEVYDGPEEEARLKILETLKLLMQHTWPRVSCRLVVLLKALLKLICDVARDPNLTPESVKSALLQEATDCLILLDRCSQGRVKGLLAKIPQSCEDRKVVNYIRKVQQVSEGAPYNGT
UniProt Q3KQV9: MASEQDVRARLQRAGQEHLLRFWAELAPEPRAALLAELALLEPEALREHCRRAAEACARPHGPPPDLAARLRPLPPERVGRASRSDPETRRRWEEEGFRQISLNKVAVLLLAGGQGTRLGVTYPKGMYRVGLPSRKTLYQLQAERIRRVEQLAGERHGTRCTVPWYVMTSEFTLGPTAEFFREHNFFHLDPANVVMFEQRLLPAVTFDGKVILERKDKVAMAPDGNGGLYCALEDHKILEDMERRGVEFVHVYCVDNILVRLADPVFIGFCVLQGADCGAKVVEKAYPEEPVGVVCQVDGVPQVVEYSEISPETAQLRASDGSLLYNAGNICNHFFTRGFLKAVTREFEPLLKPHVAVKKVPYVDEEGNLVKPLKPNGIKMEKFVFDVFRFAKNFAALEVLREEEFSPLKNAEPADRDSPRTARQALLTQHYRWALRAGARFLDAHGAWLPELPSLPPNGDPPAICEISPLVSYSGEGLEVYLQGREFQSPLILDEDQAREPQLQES
UniProt Q99816: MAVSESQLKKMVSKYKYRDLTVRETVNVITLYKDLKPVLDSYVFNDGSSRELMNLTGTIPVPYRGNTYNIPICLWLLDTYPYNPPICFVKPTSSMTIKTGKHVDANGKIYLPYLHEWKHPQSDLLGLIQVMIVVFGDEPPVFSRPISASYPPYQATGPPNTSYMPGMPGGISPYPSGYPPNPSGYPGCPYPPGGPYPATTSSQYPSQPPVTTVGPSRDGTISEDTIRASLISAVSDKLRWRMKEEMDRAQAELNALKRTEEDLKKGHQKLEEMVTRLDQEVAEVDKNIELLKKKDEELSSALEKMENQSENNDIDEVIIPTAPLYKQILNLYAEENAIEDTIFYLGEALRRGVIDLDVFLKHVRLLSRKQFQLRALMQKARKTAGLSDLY
UniProt P68363, whole entry, looked up: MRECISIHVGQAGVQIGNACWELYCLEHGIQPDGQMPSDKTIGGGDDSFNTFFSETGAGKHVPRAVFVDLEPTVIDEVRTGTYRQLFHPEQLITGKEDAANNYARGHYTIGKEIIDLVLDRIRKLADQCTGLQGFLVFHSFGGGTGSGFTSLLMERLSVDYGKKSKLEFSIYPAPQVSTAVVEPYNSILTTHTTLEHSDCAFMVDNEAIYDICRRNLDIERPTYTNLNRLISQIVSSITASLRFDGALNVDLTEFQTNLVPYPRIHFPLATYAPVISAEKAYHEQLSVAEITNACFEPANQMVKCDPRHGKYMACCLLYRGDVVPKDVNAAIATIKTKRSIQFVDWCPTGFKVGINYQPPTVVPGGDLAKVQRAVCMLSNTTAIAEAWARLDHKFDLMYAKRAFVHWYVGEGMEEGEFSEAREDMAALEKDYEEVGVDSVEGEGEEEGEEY
UniProt Q9NV66: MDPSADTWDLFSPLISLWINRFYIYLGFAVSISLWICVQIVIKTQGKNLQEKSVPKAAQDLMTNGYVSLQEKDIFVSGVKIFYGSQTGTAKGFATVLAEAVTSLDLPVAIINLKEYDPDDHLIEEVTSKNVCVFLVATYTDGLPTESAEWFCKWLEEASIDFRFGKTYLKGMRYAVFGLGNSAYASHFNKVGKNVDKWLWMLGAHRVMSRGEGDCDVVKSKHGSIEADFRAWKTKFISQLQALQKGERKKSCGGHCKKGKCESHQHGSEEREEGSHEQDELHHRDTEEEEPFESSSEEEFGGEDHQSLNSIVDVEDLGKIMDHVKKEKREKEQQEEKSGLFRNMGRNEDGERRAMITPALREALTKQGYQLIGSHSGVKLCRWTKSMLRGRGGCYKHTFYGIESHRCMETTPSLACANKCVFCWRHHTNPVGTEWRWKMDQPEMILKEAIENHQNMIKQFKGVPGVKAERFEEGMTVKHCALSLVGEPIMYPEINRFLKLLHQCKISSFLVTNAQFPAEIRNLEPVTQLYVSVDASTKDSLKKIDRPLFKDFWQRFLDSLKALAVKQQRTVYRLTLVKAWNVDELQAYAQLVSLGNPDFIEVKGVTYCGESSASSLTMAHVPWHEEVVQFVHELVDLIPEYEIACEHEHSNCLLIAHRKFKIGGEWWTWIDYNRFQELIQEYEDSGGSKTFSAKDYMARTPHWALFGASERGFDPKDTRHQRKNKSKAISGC
UniProt Q99757: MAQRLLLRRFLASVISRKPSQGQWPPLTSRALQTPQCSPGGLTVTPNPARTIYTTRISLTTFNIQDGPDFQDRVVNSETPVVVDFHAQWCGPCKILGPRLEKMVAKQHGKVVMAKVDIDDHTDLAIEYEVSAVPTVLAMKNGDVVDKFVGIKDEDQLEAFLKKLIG

log2 fold change, inactive:
TUBB3 (UniProt Q13509) -0.012
TSFM (UniProt P43897) -0.058
TWF2 (UniProt Q6IBS0) -0.011
TXLNG (UniProt Q9NUQ3) -0.015
TTMP isoform 3 (UniProt Q5BVD1) 0.042
TTN isoform 12 (UniProt Q8WZ42) 0.112
U2AF2 (UniProt P26368) 0.028
TSR2 (UniProt Q969E8) -0.163
TUFM (UniProt P49411) 0.05

compound: CC(C)N(C[C@H]1O[C@@H](n2cnc3c(N)ncnc32)[C@H](O)[C@@H]1O)[C@H]1C[C@@H](CCc2nc3cc(C(C)(C)C)ccc3[nH]2)C1 [pinometostat]; assay: as above
Summary of the method: as §1

log2 fold change, inactive:
TSPAN14 (UniProt Q8NG11) -0.028
UBE2J1 (UniProt Q9Y385) 0.096
UBE2H (UniProt P62256) -0.049
TUBA1C (UniProt Q9BQE3) -0.005
UBE2I (UniProt P63279) -0.029
UBAP2L isoform 1 (UniProt Q14157) -0.031
TTPAL (UniProt Q9BTX7) 0.014
TXNRD1 (UniProt Q16881) -0.042
TXNL1 (UniProt O43396) -0.029
TTC27 (UniProt Q6P3X3) 0.277
TTI2 (UniProt Q6NXR4) 0.016
UAP1L1 (UniProt Q3KQV9) 0.019
TXNIP (UniProt Q9H3M7) -0.083
UBAP1 isoform 4 (UniProt Q9NZ09) 0.018
UBAP2L isoform 5 (UniProt Q14157) -0.032
TSG101 (UniProt Q99816) -0.003
TUBA1B (UniProt P68363) -0.043
UBA52 (UniProt P62987) 0.358
UBE2G1 (UniProt P62253) 0.007
TYW1 (UniProt Q9NV66) 0.005
TXN2 (UniProt Q99757) -0.048
UBA1 (UniProt P22314) 0.019
UBA6 0.004
TUBB3 (UniProt Q13509) -0.023
TSFM (UniProt P43897) -0.08
TWF2 (UniProt Q6IBS0) 0.019
TXLNG (UniProt Q9NUQ3) -0.037
TTMP isoform 3 (UniProt Q5BVD1) 0.01
TTN isoform 12 (UniProt Q8WZ42) 0.019
U2AF2 (UniProt P26368) 0.03
TSR2 (UniProt Q969E8) -0.103
TUFM (UniProt P49411) -0.023

Reference: the supplement of paper PMC10849652
